Results from PMC5839386.
Results are given in words; binding and its absence hold for the method and conditions named. Binding seen in cells or lysates may run through a third protein. For some assays here: A result given as binding can be weak or reduced; the word gives no strength. Tags and fused reporters may be left off the sequences shown.

Legend:
[1] = target: T1, Flag-tagged C. elegans RHEB-1 (C. elegans) (UniProt P34443); assay: co-IP; HEK293T cells co-transfected with Flag- and V5-tagged proteins; lysis in IP buffer (1% Triton-X 100, 20 mM Tris pH 7.5, 50 mM NaCl); anti-FLAG M2 affinity beads, 4°C; blot with anti-V5
T1 sequence: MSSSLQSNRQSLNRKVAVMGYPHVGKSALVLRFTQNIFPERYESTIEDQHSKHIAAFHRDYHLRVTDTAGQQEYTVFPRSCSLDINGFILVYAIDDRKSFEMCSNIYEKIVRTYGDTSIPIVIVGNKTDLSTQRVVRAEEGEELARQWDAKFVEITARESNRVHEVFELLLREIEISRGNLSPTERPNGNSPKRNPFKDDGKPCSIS

[2] = target: T2, Flag-tagged Rab23 (control protein) (UniProt Q9ULC3); assay: as above
T2 sequence: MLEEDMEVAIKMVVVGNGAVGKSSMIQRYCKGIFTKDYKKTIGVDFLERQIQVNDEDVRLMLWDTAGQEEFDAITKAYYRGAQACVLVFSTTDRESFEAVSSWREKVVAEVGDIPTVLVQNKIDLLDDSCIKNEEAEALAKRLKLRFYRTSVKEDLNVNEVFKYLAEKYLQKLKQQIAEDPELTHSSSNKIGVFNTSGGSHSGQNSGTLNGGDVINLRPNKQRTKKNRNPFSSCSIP

- binding [1]: binds
- binding [2]: no binding
Substance: V5-tagged C. elegans CGEF-1
